Consider 104 sequences from PubChem BioAssay AID1347423 (Functional Genomics Laboratory (NCATS/FGL), 2020).

Hit rate of the full screen: of about 52,000 sequences, about 210 (0.4%) were called active.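 Rule for the calls: active = gene whose silencing raises cell survival under the drug, median off-target-corrected z-score across its silencing RNAs 2 or more; inactive = the rest.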 Some of the results follow.

This test is described as follows: Resistance to Poly (ADP-Ribose) Polymerase inhibitor: Gene Identification via Genome-wide siRNA Screen. The note with it: mouse BRCA2 R2336H ES cells, olaparib, CellTiter-Glo viability; stronger effect = higher value. The procedure, abridged:
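Genome-wide siRNA screen (3 siRNAs/gene, 20 nM) in mouse ES cells carrying hypomorphic BRCA2 R2336H; olaparib 500 nM added 48 h post-transfection, CellTiter-Glo viability 72 h later. Normalized to plate-median negative control; MAD z-scores, gene median, seed-adjusted.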
(ATP-based viability assays read luminescence as a measure of living cells.)
Consider “GGAAAUAGACACCAAGAGCTT against 9130404D08Rik”, for which the z-score was inactive: 0.368. On to “GGAUCUGAAGAUGAUGAACTT against 9030624L02Rik”, for which the z-score is inactive: 0.339. With GCUUCAUCCACCAUUAAUCTT against Rabgap1 the figure was inactive: 1.71; with GGGUUUUCACUCAAAAAAATT against Aup1, inactive: 1.8; with GGAAUAAGGAAGUAAAGAUTT against Olfr958, inactive: -0.0544. Under “GGAAAUGACAUCUUCCUUGTT against 2410006N06Rik” stands inactive: 0.694; under “GGUUCGGCUCAUCUACCAATT against 2010004O20Rik”, inactive: 1.12; under “CGAUGAAGCCGGAUUGAGATT against 1700010H22Rik”, inactive: 0.459. On to “CCACCGGAAUGACAUAAUGTT against 2310015I08Rik”, for which the z-score is inactive: 0.829. In the case of GGAUGUGGUUCAGAAGGCCTT against Stab1, the z-score is inactive: 1.22.

As for GGGAAGAGCAGAAGUCUGUTT against Myod1, the z-score was inactive: 1.67.

Turning to CGCGAUGGAACCAUAGUCATT against Nagpa, the z-score was inactive: -0.0821. Under GCCAUUCUAAGAGGGCCUCTT against Stk10 stands inactive: 0.0504; under GGAGUUUUCAAAAAACAGATT against Dsc2, inactive: 1.45; under GCUUGGAGAUGAACUCUAATT against Olfr533, inactive: -1.41. With “GCUCGAGUACCUGUACCUATT against A930017N06Rik” the figure was inactive: -0.921; with GGCAUGCCUGUUGCUAUGATT against Cyp3a44, inactive: -1.71. With “GGCUUCAAACACUUCCUUGTT against D030001E08” the figure was inactive: 0.314; with GGAGUUUAUGUGAGUGGCATT against Olfr170, inactive: -0.945; with GGGCAUCUCUCAGCAAUGATT against Asb10, inactive: -1.42. In the case of GGAAGCCCUUUCCGUCCUUTT against Tacc2, the z-score was inactive: 0.165. As for GCUUUAUCCACAGGUGCCATT against Olfr1350, the z-score is inactive: 0.426.

On to “GGAGCUGAACAUGUUAACUTT against 2810403P18Rik”, for which the z-score is inactive: 0.406.

Consider “GGCAGUUGAUUCCUUUAAATT against B930060C03”, for which the z-score is inactive: 0.465.

As to CGUGGUUCAUUUACAGGUUTT against Rnf2, the z-score is inactive: -1.84.

With GGUGGAGUCUUCUUCCUCATT against Ube2d1, the z-score was inactive: -0.734. With GGACAACAUCAUUAGCCUCTT against Egr3 the figure was inactive: 1.9; with GGCUGGAAUACAGUAAUUCTT against Opn1sw, inactive: -1.24.

Regarding GCAUUCAUGUGCUCUGCCCTT against Ifitm6, the z-score is inactive: -0.0399.

For the sequence GGCUGACCUACAUUAGCAATT against Tas1r2, the z-score was inactive: 0.33. Under “GGUCACAGAUCGGAAUAUGTT against 4931428F04Rik” stands inactive: -0.0759; under GCAGCAGUGAAAUAGCUUCTT against Eya1, inactive: 0.505.

Regarding GCACUAGUUAGAGAUCUUATT against Gm1574, the z-score was inactive: -0.153.

In the case of “GGAUCUUUUCCAACAAAUATT against 1700129I15Rik”, the z-score is inactive: 0.321. Under CCCAAGAUGGUAGCAGACATT against Tbxas1 stands inactive: -1.34. With “GGAAGAAAUGCAGUUCUAATT against 8030451K01Rik” the figure was inactive: -1.24; with GGAAAUAUAUCUCUAUCUCTT against Xylt2, inactive: 1.12; with GGUGCAUAAAGAGAGCGAUTT against MGC58970, inactive: -0.731. Under CCUAAGUUCCUGAAAAUAUTT against Epha5 stands inactive: -0.915; under CGAAUUAUCAAUAAGCACATT against Mettl3, inactive: 0.341. As for GGUUCUGGACAGAUGCUGUTT against Nags, the z-score is inactive: 0.411. In the case of CCCAAAGCUCUUGCUACUUTT against Olfr823, the z-score was inactive: -0.119.

CCGAAGCACUUGCUGGUAUTT against Cerk: the z-score was inactive: -0.281. Under GGUAAUGUACCUAAUAUUGTT against Cnn1 stands inactive: 0.386; under GUCAGAGCCUCUGUCUUUUTT against Olfr342, inactive: -0.0374; under GUAUUAAGACCAAACAGAUTT against Olfr623, inactive: -0.552. Under GGACCUGAGUUAGGAGAAUTT against Zfp105 stands inactive: 1.27; under CCUUCUCAUCGGUCAUUCUTT against Gm1019, inactive: -0.342. With GGAACUGGCCAAGUACUUCTT against Sst the figure was inactive: 0.538; with CCUACUGUUGCUAUUACCATT against Oscar, inactive: -1.54; with “GGUUCUUGUUUUUACCCGCTT against 1700020B09Rik”, inactive: 0.591. Turning to GGUUUGAAAUGAAACUUCATT against Nedd4l, the z-score was inactive: -0.866. Under GGGAUGUAUUUCAACAACUTT against Wwox stands inactive: 0.542.

For the sequence GGUGAUAAUAAAAAUGCAGTT against Pzp, the z-score is inactive: 0.968. With GCCUUCGAAGUCGUCCAAGTT against Cdca5 the figure was inactive: -1.17. Under GCUUUACCUGCUCAGAAGCTT against Olfr520 stands inactive: 0.553. With CCUUGAGAAAGCUCCAGUUTT against Cldn9 the figure was inactive: 0.296. Consider GGAUGAAAAGCUUCAAUGUTT against Tomm70a, for which the z-score was inactive: 0.449. With “GCUUCAUCUUACCUACUCATT against D930020E02Rik” the figure was inactive: -0.115.

With CGCACUAGGUGAGUUCAUCTT against Dab2ip, the z-score is inactive: 0.121. Under “GGGUCUUUAAACUGAAAGATT against C230050L11” stands inactive: -1.27. Under GGAAGAAAUCAUGAGGAACTT against Xab2 stands inactive: -0.231. Turning to CCAAGUACCCUGAGAGUUUTT against Nte, the z-score is inactive: 0.701. With GGCGAUUUCAACUGAAAAUTT against Gababrbp the figure was inactive: 2.25. With GGUGGAUCAUACAAAUUUGTT against Pank2 the figure was inactive: 0.087.

As for GGAAGAAGGGCUUUCUUUGTT against BC055367, the z-score is inactive: 0.576. With GUUCUGAAGGGCGACGUAATT against Olfr1217 the figure was inactive: 0.701; with GUAACUCCUCCAUGAACUCTT against a, inactive: 0.686. Under “GGUGUAUCGCCUAUACCAGTT against 6330407G04Rik” stands inactive: 0.126; under CCAGGUUCUCCGAAUCUCUTT against Cpa1, inactive: 1.05; under GGAUAAUGUGAAGUUCAAGTT against Rpl38, inactive: -2.72. GGCAGGUAAUAAAGUUUGUTT against Kcne1l: the z-score is inactive: 0.498. With GGAUGUCAAAUCUGCUGUATT against Olfr973 the figure was inactive: -0.702; with GGUUUCCAGAAGAAACUCCTT against V1re11, inactive: 0.706.

Take GGAGAUCCGGAAUUUUUAATT against Per2: the z-score was inactive: -0.334. Under “GGCUUCCUUCAGUGAGAAUTT against 1810065E05Rik” stands inactive: 0.291; under GUGCAACGUGAGCAAUACGTT against Selenbp2, inactive: -1.57; under GGUUCCUUUCCUUGAACUUTT against Mtmr3, inactive: 0.0542. With GGUGUCAGUCUCUAAACGATT against Hdgfrp2 the figure was inactive: -0.819.

For “GCAACGCACCGCUUACUAATT against 5930405J04Rik”, the z-score is inactive: -0.865. With GGCACAUCAGAAUGGUUUATT against Txnrd3 the figure was inactive: 0.126.

On to GCUCAGAUCUUAUGAUACATT against Zfp35, for which the z-score was inactive: -0.776. Regarding GGCCAUAGUGCAGUUAGGUTT against Cd24a, the z-score was inactive: -0.488.

Turning to GGACCCAAAUCUUUUUAGATT against Wac, the z-score is inactive: -0.703. Under CCUGCCUUUUCCUAAUGAATT against Ovca2 stands inactive: 0.573. With “CCCACAAUCUCGACAGUCUTT against 4732471D19Rik” the figure was inactive: -0.502. With “GGAAACUUAUGGAAAGUCUTT against 2410075D05Rik” the figure was inactive: -0.8. “GGUUUUUGAUAAUUGCCAUTT against 5730591C18Rik”: the z-score is inactive: 1.21.

With GGUUACCUUGAGCUAUGGGTT against Rfng, the z-score was inactive: -0.229. Under GCCUCAAGAAUACGACGAUTT against Esrrbl1 stands inactive: 1.03; under GGAGAAAGAUGGCUCAUCUTT against Itm2a, inactive: -3.07.

On to GGAAUUCAUCACUCAAAUGTT against Catsper4, for which the z-score was inactive: 0.876. With GGUGUCUCUGAAGAUUGAATT against Cdc6 the figure was inactive: -1.03; with GGAUUGUCGAGAUUGCGUCTT against Tbcc, inactive: -0.092; with “GGGACUGGAUUUCUGUAUUTT against 1110021N07Rik”, inactive: 0.926. With “GGUCUCUUCAUUCUUGUGCTT against 1700084J12Rik” the figure was inactive: 1.14; with CCAUUGUGUCAUACGGCUUTT against Olfr211, inactive: -1.35; with GAACAACAACAGACAAGUGTT against Cxcl12, inactive: -0.133. Under GGAAUAGUAUACAAUAACCTT against Fbxl5 stands inactive: 0.609; under GCUUGUUAUGAGCGGGCUUTT against Psx2, inactive: 1.4. For GGAUGUUGUAGUCAAAACCTT against Ttll4, the z-score is inactive: 0.993. Take GGUAUUCGCUUAAAAUCCATT against Stab2: the z-score was inactive: 1.42. Under GCCACUGGUUCCAAUCGUCTT against Freq stands inactive: 0.295; under GCCACGUACAACCUCUUCUTT against Tfcp2l4, inactive: -0.225.
